The record followed here is patent US20200157210A1.

Assay [1] has as its target endogenous Kras (MIA PaCa2 cells) (UniProt P01116). In words: binding to endogenous Kras in MIA PaCa2 cells (A of FIG. 14).
Assay [2] has the same target. In words: binding to endogenous Kras in MIA PaCa2 cells (A of FIG. 14), reference for the comparison.
Assay [3] shares this target. Kind of assay: co-immunoprecipitation with anti-HA antibody from MIA PaCa2 cells.

Results are given in words; binding and its absence hold for the method and conditions named. For part of these data: In cells and extracts the contact can be indirect. Some binding calls cover weakened binding; strength is not graded here. Tags and fused reporters may be left off the sequences shown.

B1: DE2.0-Y13-259-HA (scFv)
scFv: MDEQENDYDEPEVNDENQDYDEGSQVQLQQSGGGLVQPGRSLKLSCVVSGFTFSNYGMNWIRQTPGKGLEWVAYISSGSSYLYYAETVKGRFTISRDNAKNTLYLQMTSLRSEDTALYYCARHEGTGTDFFDYWGQGTTVTVSSGGGGSGGGGSGGGGSDIQLTQSPHSLSASLGETVSIECLASEGISNYLAWYQQKPGKSPQLLIYYASSLQDGVPSRFSGSGSGTQFSLKISNMQPEDEGVYYCQQAYKYPSTFGAGTKLEIKYPYDVPDYA
For the molecule B1, the binding result in assay [1] is given as “binds”.

B2: s3Flag-scFv-Y13-259-HA (scFv)
scFv: MDYKDHDGDYKDHDIDYKDDDDKGSQVQLQQSGGGLVQPGRSLKLSCVVSGFTFSNYGMNWIRQTPGKGLEWVAYISSGSSYLYYAETVKGRFTISRDNAKNTLYLQMTSLRSEDTALYYCARHEGTGTDFFDYWGQGTTVTVSSGGGGSGGGGSGGGGSDIQLTQSPHSLSASLGETVSIECLASEGISNYLAWYQQKPGKSPQLLIYYASSLQDGVPSRFSGSGSGTQFSLKISNMQPEDEGVYYCQQAYKYPSTFGAGTKLEIKYPYDVPDYA
Consider B2, for which the binding result in assay [2] and in assay [3] was “binds” each time.
